In experiment [1] the target is human plasma fibronectin (human) (UniProt P02751). Briefly: ELISA. For orientation: In an ELISA, binding on a coated surface is turned into a signal by an enzyme label.
Experiment [2] deals with human tenascin C (human) (UniProt P24821). Briefly: ELISA.
The target of experiment [3] is human vitronectin (human) (UniProt P04004). Briefly: ELISA.
The target of a further experiment is human fibrinogen (human) (UniProt P02671+P02675+P02679). Briefly: ELISA.
The target of experiment [4] is human tenascin C (human) (UniProt P24821). Briefly: ELISA; ECM protein coated at 100 nM, BMP-2 0.1 to 100 nM.

The chains behind the UniProt entries cited, without tags or fusion partners. Where a name states a change or a piece, a line headed by the entry shows the natural chain unless it says otherwise. Residues count along the entry.
UniProt P24821, residues 23-2201: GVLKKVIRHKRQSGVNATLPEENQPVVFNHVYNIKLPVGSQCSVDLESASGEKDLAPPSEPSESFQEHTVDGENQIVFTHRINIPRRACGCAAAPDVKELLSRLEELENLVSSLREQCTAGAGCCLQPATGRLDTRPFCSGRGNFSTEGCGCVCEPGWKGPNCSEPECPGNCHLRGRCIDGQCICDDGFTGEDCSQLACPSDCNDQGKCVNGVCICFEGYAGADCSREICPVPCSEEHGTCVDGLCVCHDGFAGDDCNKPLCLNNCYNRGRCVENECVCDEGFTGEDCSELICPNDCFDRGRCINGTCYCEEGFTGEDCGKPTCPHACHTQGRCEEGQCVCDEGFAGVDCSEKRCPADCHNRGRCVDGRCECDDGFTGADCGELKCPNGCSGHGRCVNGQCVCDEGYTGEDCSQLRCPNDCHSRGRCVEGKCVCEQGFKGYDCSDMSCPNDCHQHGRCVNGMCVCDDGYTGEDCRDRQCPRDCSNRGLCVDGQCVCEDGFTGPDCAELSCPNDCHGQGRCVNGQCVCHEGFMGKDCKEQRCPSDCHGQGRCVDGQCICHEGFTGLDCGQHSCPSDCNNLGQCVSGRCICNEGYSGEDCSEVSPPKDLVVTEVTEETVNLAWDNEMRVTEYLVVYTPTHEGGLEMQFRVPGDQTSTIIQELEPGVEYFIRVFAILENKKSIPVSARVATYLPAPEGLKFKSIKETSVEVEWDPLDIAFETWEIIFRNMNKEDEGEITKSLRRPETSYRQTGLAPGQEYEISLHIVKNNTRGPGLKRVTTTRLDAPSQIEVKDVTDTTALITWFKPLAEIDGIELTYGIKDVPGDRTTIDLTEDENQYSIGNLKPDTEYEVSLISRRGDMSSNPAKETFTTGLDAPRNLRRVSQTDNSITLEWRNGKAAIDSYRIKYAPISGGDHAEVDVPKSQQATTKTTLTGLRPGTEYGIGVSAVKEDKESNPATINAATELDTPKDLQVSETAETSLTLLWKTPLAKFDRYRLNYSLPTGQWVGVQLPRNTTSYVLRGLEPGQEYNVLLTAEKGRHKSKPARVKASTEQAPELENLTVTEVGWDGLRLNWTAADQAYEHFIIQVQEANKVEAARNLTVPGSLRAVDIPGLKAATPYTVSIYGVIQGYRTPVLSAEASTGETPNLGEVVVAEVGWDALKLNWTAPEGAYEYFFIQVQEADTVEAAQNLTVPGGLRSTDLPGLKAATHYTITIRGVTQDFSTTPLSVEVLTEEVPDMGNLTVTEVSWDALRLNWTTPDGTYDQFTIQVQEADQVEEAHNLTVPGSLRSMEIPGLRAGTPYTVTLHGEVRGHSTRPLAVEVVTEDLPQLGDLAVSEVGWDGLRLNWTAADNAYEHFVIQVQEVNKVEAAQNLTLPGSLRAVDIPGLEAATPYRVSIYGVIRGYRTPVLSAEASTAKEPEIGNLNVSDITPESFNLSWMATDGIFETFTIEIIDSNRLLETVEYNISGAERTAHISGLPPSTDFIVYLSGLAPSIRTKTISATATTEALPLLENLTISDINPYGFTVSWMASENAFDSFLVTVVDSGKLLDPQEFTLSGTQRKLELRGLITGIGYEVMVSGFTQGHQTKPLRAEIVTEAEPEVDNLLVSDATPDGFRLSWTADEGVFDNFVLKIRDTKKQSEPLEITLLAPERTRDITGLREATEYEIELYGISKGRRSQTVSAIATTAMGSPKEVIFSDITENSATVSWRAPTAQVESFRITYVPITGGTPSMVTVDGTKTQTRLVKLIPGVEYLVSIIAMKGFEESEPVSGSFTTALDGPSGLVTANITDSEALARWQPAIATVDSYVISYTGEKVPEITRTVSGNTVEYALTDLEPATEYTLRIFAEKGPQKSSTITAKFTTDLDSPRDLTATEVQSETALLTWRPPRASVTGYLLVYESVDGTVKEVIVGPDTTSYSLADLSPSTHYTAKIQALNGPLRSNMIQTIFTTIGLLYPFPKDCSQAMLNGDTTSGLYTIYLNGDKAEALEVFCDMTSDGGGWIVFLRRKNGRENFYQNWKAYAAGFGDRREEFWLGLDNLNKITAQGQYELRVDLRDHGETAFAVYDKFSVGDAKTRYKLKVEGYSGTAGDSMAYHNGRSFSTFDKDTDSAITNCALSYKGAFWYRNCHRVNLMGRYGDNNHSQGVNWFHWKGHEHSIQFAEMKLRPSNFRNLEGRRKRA
UniProt P04004, residues 20-478: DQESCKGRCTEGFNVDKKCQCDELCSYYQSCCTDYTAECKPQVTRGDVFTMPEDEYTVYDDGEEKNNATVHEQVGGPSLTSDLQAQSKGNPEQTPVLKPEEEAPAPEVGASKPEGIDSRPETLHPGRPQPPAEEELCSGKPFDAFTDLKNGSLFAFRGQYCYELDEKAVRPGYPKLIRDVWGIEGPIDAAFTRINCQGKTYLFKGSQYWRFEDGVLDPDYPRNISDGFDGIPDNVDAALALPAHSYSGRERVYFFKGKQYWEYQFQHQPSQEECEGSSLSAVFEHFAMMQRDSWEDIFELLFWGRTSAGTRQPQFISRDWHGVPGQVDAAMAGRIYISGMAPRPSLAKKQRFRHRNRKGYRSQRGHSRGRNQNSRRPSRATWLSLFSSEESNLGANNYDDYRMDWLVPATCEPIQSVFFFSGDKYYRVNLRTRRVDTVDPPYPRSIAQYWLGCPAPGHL
UniProt P02671: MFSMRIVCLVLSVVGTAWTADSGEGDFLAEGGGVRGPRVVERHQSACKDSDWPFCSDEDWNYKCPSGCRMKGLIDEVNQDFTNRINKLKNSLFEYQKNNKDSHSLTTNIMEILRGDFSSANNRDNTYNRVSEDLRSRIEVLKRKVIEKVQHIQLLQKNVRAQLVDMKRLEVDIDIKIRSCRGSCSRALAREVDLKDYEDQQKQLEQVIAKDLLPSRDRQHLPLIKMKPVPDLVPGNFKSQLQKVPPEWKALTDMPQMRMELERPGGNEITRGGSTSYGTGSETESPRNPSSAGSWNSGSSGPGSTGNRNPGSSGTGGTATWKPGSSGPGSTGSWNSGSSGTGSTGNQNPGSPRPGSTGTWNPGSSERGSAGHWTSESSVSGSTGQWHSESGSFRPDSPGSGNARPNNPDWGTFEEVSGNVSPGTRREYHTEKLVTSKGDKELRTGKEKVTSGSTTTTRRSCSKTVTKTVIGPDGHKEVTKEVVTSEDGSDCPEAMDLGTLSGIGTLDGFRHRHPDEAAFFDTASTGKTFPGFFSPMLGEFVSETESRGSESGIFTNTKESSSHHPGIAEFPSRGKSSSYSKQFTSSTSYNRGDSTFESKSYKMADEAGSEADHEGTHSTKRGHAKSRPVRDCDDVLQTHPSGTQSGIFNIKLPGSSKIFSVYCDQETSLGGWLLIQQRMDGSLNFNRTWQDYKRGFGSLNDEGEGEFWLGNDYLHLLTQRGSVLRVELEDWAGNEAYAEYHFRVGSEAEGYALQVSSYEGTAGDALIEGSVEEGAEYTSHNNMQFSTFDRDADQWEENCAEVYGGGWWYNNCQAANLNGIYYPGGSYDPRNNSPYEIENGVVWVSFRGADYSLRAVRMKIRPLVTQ
UniProt P02675: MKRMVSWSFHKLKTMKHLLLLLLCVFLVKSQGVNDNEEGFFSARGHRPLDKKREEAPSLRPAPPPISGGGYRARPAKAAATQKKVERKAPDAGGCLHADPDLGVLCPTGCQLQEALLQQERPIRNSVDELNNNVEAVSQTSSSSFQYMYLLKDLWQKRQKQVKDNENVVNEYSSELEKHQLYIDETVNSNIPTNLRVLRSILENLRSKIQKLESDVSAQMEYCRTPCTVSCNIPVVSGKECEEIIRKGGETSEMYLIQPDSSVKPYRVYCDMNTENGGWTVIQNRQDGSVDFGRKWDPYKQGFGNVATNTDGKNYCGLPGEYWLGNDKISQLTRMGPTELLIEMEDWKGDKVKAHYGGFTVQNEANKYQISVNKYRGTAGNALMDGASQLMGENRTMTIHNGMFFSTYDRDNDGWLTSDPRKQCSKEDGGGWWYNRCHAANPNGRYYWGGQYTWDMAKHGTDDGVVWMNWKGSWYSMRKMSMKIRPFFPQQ
UniProt P02679: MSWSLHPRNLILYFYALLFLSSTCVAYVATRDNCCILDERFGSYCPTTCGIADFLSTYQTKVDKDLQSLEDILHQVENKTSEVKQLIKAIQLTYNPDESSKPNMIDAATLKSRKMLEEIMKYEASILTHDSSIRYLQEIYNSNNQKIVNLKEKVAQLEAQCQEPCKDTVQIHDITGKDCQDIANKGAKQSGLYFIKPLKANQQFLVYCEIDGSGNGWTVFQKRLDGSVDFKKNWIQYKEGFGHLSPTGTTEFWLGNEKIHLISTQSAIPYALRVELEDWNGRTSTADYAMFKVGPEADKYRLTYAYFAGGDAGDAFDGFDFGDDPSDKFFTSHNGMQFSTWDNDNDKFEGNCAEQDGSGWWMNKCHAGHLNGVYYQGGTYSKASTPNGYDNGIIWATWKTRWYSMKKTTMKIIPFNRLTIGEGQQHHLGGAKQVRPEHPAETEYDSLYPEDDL

Results are given in words; binding and its absence hold for the method and conditions named. Some entries that bind do so weakly or less than the wild type.

B1: neurturin (NRTN) (ligand, UniProt Q99748 96-197, looked up)
chain: ARLGARPCGLRELEVRVSELGLGYASDETVLFRYCAGACEAAARVYDLGLRRLRQRRRLRRERVRAQPCCRPTAYEDEVSFLDAHSRYHTVHELSARECACV
Take B1: the binding result (in experiment [1]; with human tenascin C (human) [2]; in experiment [3]) was “binds” in each case.

B2: amphiregulin (AREG) (ligand, UniProt P15514 101-198, looked up)
chain: SVRVEQVVKPPQNKTESENTSDKPKRKKKGGKNGKNRRNRKKKNPCNAEFQNFCIHGECKYIEHLEAVTCKCQQEYFGERCGEKSMKTHSMIDSSLSK
Consider B2, for which the binding result (with human fibrinogen (human); in experiment [1]; with human tenascin C (human) [2]; in experiment [3]) was “binds” in each case.

B3: BMP-2 (bone morphogenetic protein-2, Peprotech) (ligand, murine, UniProt P21274 281-394, looked up)
chain: QAKHKQRKRLKSSCKRHPLYVDFSDVGWNDWIVAPPGYHAFYCHGECPFPLADHLNSTNHAIVQTLVNSVNSKIPKACCVPTELSAISMLYLDENEKVVLKNYQDMVVEGCGCR
Turning to B3, the binding entry with human tenascin C (human) [4] was “binds”.

The values are drawn from US20230272045A1.
